Experimental data taken from patent US20120014911A1, “Regulators of the Interferon-Alpha Receptor 1 (IFNAR1) Chain of the Interferon Receptor” (priority 2009, published 2012).
For at least one compound, name, drawing or mass did not settle the structure.

Test system: ligand-inducible IFNAR1 degron kinase activity
Assay: Phosphorylation-binding assay: GST-IFNAR1 phosphorylated by CK1α-depleted lysates of IFN-α-treated cells, then binding of 35S-labeled β-Trcp2
Assay type: biochemical, human
Details: inhibitor added in vitro: H89 200 nM, BAY43-9006 50 nM, Bis-I 25 nM, Gö6976 25 nM, LY294002 1.5 μM, SP600125 100 nM, D4476 400 nM, SB203580 100 nM
Description: For some binding assays, the lysates from 293T cells (treated for various tunes with IFN-α, 2000 IU/mL) were depleted of CK1α (as described previously (Liu, et al., 2009, Mal Cell Biol 29(24):6401-12) were incubated with GST-IFNAR1 proteins (wild type or S535,539A mutant that migrates slower on SDS-PAGE due to the presence of four additional amino acids in the linker), ATP and kinase inhibitors (as indicated) for 30 min at 30° C. After that, GST-IFNAR1 were purified and incubated with in vitro translated and 35S-methionine-labeled 3-Trcp2 for 1 h at 4° C.; this binding was later analyzed by autoradiography and Coomassie staining. In vitro serine phosphorylation of GST-IFNAR1 (analyzed by autoradiography or IB with pS535 antibody) by cell extracts or PKD preparations and tyrosine phosphorylation of GST-PKD2 by Tyk2 was carried out and analyzed as described elsewhere herein.
For other binding assays, the lysates from 293T cells (treated for various times with IFN-α, 2000 IU/mL) underwent two rounds of immunodepletion of CK1α as described elsewhere (Liu, et al., 2009, Mol Cell Biol 29(24):6401-12). […] Beads were then washed three times with 1 mL of binding buffer, and the proteins were eluted using Laemmli buffer, resolved by SDS-PAGE, and analyzed by autoradiography and Coomassie staining.

| Structure (SMILES) | recruitment of β-Trcp2 to GST-IFNAR1 (phosphorylation-binding assay) |
| --- | --- |
| O=c1cc(N2CCOCC2)oc2c(-c3ccccc3)cccc12 [LY294002] | not inhibited |
| Oc1c2ccccc2c2c3c(cccc13)N=N2 [SP600125] | not inhibited |
